Measurements reported in PubChem BioAssay AID1159578 (Peter MacCallum Cancer Centre, 2015)

Screen: 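Knock-downs that alter how fast lymphatic endothelial cells migrate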 (primary screen)
Cells: human lymphatic endothelial cells
Reagent: siRNA pool against human genes, 40 nM
Time to read-out: 48 h after transfection
Read-out: 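Cells stained with dye and imaged after a scratch; covered wound area and nuclei counted, duplicates averaged, migration set against mock wells and turned into a robust z-score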
Reading the numbers: migration robust z-score: higher = faster migration into the scratch; nuclei per well: higher = more cells in the well
Active means: 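Migration changed when robust z exceeds 2 or falls below -2 and mean nuclei number is at least 3300; otherwise not called changed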
Meaning of the calls: active = migration changed; inactive = no migration change, or too few cells
The deposit covers about 18,000 reagents; below is a random part of them. Over the whole deposit, about 1,030 (5.7%) are marked active. 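Inactive calls also include pools with fewer than 3300 nuclei, whose migration was not assessed.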 Raw values are not corrected between plates. Not all columns of the deposit are shown.

migration robust z-score | nuclei per well, duplicate mean | Call | Gene
1.35 | 5978 | inactive | VEGFC
1.53 | 5832 | inactive | OR2T3
0.24 | 8333 | inactive | CFAP119
1.75 | 6156 | inactive | FRMD1
0.42 | 5730 | inactive | PAPPA2
0.16 | 4635 | inactive | DIP2A
-2.43 | 3434 | active | CD200R1L
-0.5 | 5664 | inactive | ZP4
-1.27 | 5056 | inactive | OR2T34
-0.76 | 4910 | inactive | NXPH1
0.25 | 7081 | inactive | ATP4B
1.09 | 7008 | inactive | ZNRF1
-1.6 | 5624 | inactive | ZNF366
1.27 | 5020 | inactive | SLC38A9
0.34 | 5690 | inactive | NCKAP5L
0.08 | 5284 | inactive | TCF7
-1.54 | 6433 | inactive | TRIP10
0.2 | 5590 | inactive | ETFDH
2.12 | 5650 | active | UBQLNL
0.02 | 4282 | inactive | CSTF2T
0.75 | 6028 | inactive | SLC39A8
-0.39 | 4588 | inactive | NFIB
0.05 | 4830 | inactive | CRLF2

3 consecutive records from above, quoted:
migration robust z-score | nuclei per well, duplicate mean | Call | Gene
-2.43 | 3434 | active | CD200R1L
-0.5 | 5664 | inactive | ZP4
-1.27 | 5056 | inactive | OR2T34
